According to patent publication US20230372433A1, “NANOPARTICLE FOR ANTI-CANCER PEPTIDES AND USES THEREOF” (KING'S COLLEGE LONDON, priority 2020, published 2023):
Some entries share one result that the patent states for a list of compounds.

System: HMLER-shEcad mammospheres
Assay: Tumoursphere formation and viability assay
Format: cell-based, human
Settings: three-dimensional mammosphere tumour model

D-form peptide of the selected sequence EEK (GLLELLELLLKAAGW) (all D-amino acids) [D-form EEK]
activity against mammosphere: 7 to 13 µM

CC(C)C[C@H](NC(=O)CN)C(=O)N[C@@H](CC(C)C)C(=O)N[C@@H](CCC(=O)O)C(=O)N[C@@H](CC(C)C)C(=O)N[C@@H](CC(C)C)C(=O)N[C@@H](CCC(=O)O)C(=O)N[C@@H](CC(C)C)C(=O)N[C@@H](CC(C)C)C(=O)N[C@@H](CC(C)C)C(=O)N[C@@H](CCCCN)C(=O)N[C@@H](C)C(=O)N[C@@H](C)C(=O)NCC(=O)N[C@@H](Cc1c[nH]c2ccccc12)C(N)=O [EEK]
activity against mammosphere: 7 to 13 µM
